PubChem BioAssay AID1347426 (Functional Genomics Laboratory (NCATS/FGL), 2020)
In all, about 31,000 sequences went through this assay and about 1,400 (4.5%) were called active.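 The calls were made as follows: active = median seed-adjusted z-score above 1 or below -1; inactive = the rest.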 Some of the results follow.

experiment: Novel Modifiers of Survival Motor Neuron (SMN) Protein: Gene Identification via Genome-wide siRNA Screen; settings: HEK293T SMN2-luciferase reporter, siRNA knockdown, 72 h; actives lie on both sides;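 also: luminescence tracks full-length SMN protein made from the SMN2 reporter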
Procedure, shortened: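 Genome-wide siRNA screen (10418 genes, 3 siRNAs each, 1 pmol per well) by reverse transfection in HEK293T cells stably carrying an SMN2-luciferase reporter; luminescence after 72 hours, normalized to negative-control siRNA, log10-transformed, MAD-scored.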

Sequence | median seed-adjusted z-score
GAGAUCGACUUGGUGCUGATT against CHRNB2 | inactive: -0.649
CUGGAAGAGCUAAACCUGATT against TLR9 | inactive: -0.0834
GGCAUCCAGUUGUUCGAGATT against RAB35 | inactive: 0.317
GCAACGUGUUGAUGAUGCATT against ADAD1 | inactive: -0.0795
CAUUCGGGAUCAUGAGUUUTT against PTPRO | inactive: 0.387
CAAGAAAAGCUACCACGCATT against PACSIN3 | inactive: -0.0145
CGGCGUAAAUCCUAGAGUATT against DMRTA1 | inactive: -0.162
UGGUGACACUGUACCCAUATT against ABI3 | inactive: 0.114
GCCCUGGACUUAGACCAGUTT against OSGIN1 | inactive: -0.131
GGGCUAUGAUAAAUGGUCUTT against SHROOM3 | inactive: 0.779
CGUCAGAGUUCAUAUCUUATT against ZNF234 | inactive: 0.0667
CACGAAAGUUUAUAGCAAATT against CHRNA9 | inactive: -0.454
CGACUCCGGAGGAUUGAAATT against GSX2 | inactive: -0.621
GGAGAGUGGAUGACUCAGATT against ZNF691 | inactive: 0.28
GGACGACACGUUCUACCUGTT against ENDOG | inactive: -0.336
CAGCCUCAAUUUUUGCCUUTT against MAL2 | inactive: -0.604
GCAAAGUAACUGCUAUAAATT against BET1 | inactive: 0.394
GCAAGGAUGUCGCACUGCUTT against CCR10 | inactive: -0.129
CGACAGAUUUUUCACUAUUTT against CDH11 | inactive: -0.457
CACUUAAACUGCAGCAGAATT against PLDN | inactive: -0.164
UCUUUUGAAUGUAUACAGATT against ZNF468 | inactive: -0.0435
GAAUAAGGCUUGUAGUAAATT against FIGNL1 | inactive: -0.408

Sequence | median seed-adjusted z-score
CCCUAACAGAUGAUCGUGATT against SETD2 | inactive: -0.0192
AAGCAGAGGUUGAUGCCGATT against ARHGEF1 | inactive: -0.0658
GAACGUGACAGAAUAAGCATT against HNF4G | inactive: 0.01
CACUAUUCAUUGCUACCUATT against CNKSR2 | inactive: -0.0536
GGAAAUUAACCGCAGGGAATT against KRT34 | inactive: 0.124
GAAGCUAGCUUAUGCUGUUTT against DDX19B | inactive: -0.298
GGAUUUUAUUCUUCACCGUTT against RBMS3 | inactive: 0.0976
GGAUAUGGAGUUACUCUUUTT against MGST1 | inactive: -0.0144
UGACAUCCGUAGAUCUUGATT against OAS3 | inactive: 0.147
GGUCGAUAAUACUAUCAAUTT against SETX | inactive: -0.709
GCACCAUGACUGACCCUGATT against SEC14L2 | inactive: -0.253
GCGAAUUCGAUAAACGGUATT against PRL | inactive: 0
GAAGCUAUUUUAAGAGGAATT against ZNF483 | inactive: 0
GAAUCAGUCCAAGAACAAUTT against GNRHR | inactive: 0.0978
GAGGGUCUCUUCUUAAGUATT against CAD | active: 2.37
CACUUUUUAUAUUUACGUATT against TSPAN4 | inactive: 0.417
GUCUAAAUGUUAUUAGGAATT against HNRPLL | inactive: 0
AAGACGGCCGAGAACUUUATT against PPIH | inactive: -0.174
CUGUGGGUGUGGAACCGUATT against TMEM86B | inactive: -0.465
GCGUCUACCACAAUCAAUATT against BPTF | inactive: -0.273
GGAAUAUCACUUCCAUACATT against NTRK3 | inactive: 0
GGAAAUACCGCAAAGACAATT against GALNT10 | inactive: 0

Sequence | median seed-adjusted z-score
CGAUAUCUGACGCAGCUAATT against RPS6KA2 | inactive: 0.139
GCUGACAGCUUAGACUUUUTT against HOXA2 | inactive: 0.335
GGAAAACGGCAUUGCAGAATT against SLC23A2 | inactive: -0.0585
GGAUAUUAGUGUCGUGCAATT against ARHGEF7 | inactive: 0.185
CGCAAGUUCUAGACCUGGATT against DACH1 | inactive: 0.562
CCUCCGAAUUCUCAACAUATT against CSNK1E | inactive: -0.796
AGACAACAUUGCAACAAGATT against TFPI | inactive: -0.0076
GUGAAACUCUGGUCACUCATT against CILP | inactive: 0.0436
CGGCUUGAAUUUGAUCUAUTT against AASDHPPT | inactive: 0.64
GGCUCAGCAUUAUGUCUGUTT against TIMP4 | inactive: -0.112
CUAAUGGGAUUGUAACUGUTT against TGFBI | inactive: 0
CCGCUUCACAGGUAGUUAATT against NUP93 | active: 1.01
GGCGUGCCUUUCAUCCUGATT against H6PD | inactive: 0.069
GUCUGCUACGCAAAACAUUTT against SPSB2 | inactive: -0.741
GCUGCGUGCUGAUCAUGUATT against CALY | inactive: 0.216
AGAUAAGGAUGAAUUGAUATT against KLRB1 | inactive: -0.44
GACGUUGUGCUGCUACCUATT against EDA | inactive: 0.316
GAGUUUGAACGGGAAACAATT against BTN2A1 | inactive: 0.302
GGAAAGCUGUGAAAGUUCUTT against LDLRAD3 | inactive: -0.133
CGGAAUAUAUUAUUCGAGUTT against PXK | inactive: -0.4
GGAGGCUAAUCCUACUUCATT against RSAD1 | inactive: -0.269
GGAAGACUAGUGAAACCCATT against MAFF | inactive: 0.42

Sequence | median seed-adjusted z-score
CAAUCACCUGCGUACAGAATT against COL1A1 | inactive: 0
GCAGUGAGAGAUGCACUGATT against ATP5E | inactive: -0.724
GAAGAGAUCCAGUCGCAUATT against DNAH2 | inactive: -0.342
GGGAUUAUCUUGCUUCCAATT against LPCAT2 | inactive: 0
CCUUACCUGGAGUACCCAATT against PMPCA | inactive: -0.985
GAUUCAGUGUGGGAGAGUUTT against MCAT | inactive: 0
AGGUACGUGUUUGACAUUATT against GDF5 | inactive: -0.0507
GCCCGAAGGAUGAUUCAAATT against FOXK2 | inactive: -0.348
GCUAAAGCCCAGUAUCUCATT against CROT | inactive: -0.612
GAGAAACGGUCAUCACUGATT against TBC1D25 | inactive: 0.0296
GCUUCUCUCGGAUUGCGUATT against TRPC3 | inactive: -0.0856
CUACAGUAACUAUUCCAAATT against FPR2 | inactive: -0.166
GCUUGUUACUUUGCAACAATT against GDA | inactive: -0.406
CGCGCAACAUCGUCAAGUATT against LPHN1 | active: -1.03
GAAGAUAUCAUUACACUAATT against PCNA | inactive: 0.0727
AGAAUUCCUAGAUAUCUGUTT against CDC14B | inactive: 0.325
CCACGUUUGUCACUCAUGUTT against STAB1 | inactive: 0.264
GAAUCGGCGAUGUACUAGATT against NT5C3 | inactive: -0.456
GCAUGAGCGAGAAUGGCUATT against AZU1 | inactive: 0.349
GUGACUUCCUGGAACGUAUTT against POLL | inactive: -0.334
GCCCAUCGUGUAUACUUCATT against AFMID | inactive: -0.515
UCCCAGUUCUGAUACAUAUTT against SAE1 | inactive: 0.831

Sequence | median seed-adjusted z-score
GAGUUUCAAUUUCAACAUUTT against NEGR1 | inactive: 0.194
GAUUCGUUCAGAGUCUAAATT against BIRC3 | inactive: -0.644
GUCUCACUGUGGACGAAAATT against ZNF57 | inactive: 0
GAGCAUACAAGUGCAGUUATT against FBXO4 | inactive: -0.0767
CCAUCUACGGUGACCUGAATT against AARS | inactive: 0
GACUCUGAAUGCUUGCUGUTT against MMS19 | inactive: 0.0142
UGACCAAGAGUGCAGAUUUTT against RGS11 | inactive: 0
GCUUCUACCCGAUCAACCATT against MMP23B | inactive: 0.288
CUACUACCGGGAUAGAGAUTT against APOBEC3D | inactive: -0.0215
CACGUUCACUGUGAACGAATT against HECW2 | inactive: 0.38
AGGUGAAUAUUGACCACUUTT against RGS5 | inactive: 0
GGAUGAAGGUAGAAAUGGATT against HK2 | inactive: -0.0135
ACUUCCAGAUUAUAGACAATT against NDUFB3 | inactive: -0.00982
GCAAGACCGUGAGACAACUTT against SENP7 | inactive: 0.547
CCUCGGAAGUGGAAGAGAUTT against SMARCB1 | inactive: 0.05
CCUGUUUCCGUGAAGAAAATT against CXCR4 | inactive: -0.347
AGUUCUCCGCGUUCAUCAATT against CLIC3 | inactive: 0
CAUCUACUUUAGUUCAUAATT against PAPOLG | inactive: 0.0674
GCCCAGUCUUCAAAGGAUUTT against SLC23A1 | inactive: 0.904
GCUUUACAGUCGGAAAAUATT against RND3 | inactive: -0.132

A few values from the entries so far:
CCUCGGAAGUGGAAGAGAUTT against SMARCB1 – median seed-adjusted z-score: inactive: 0.05
ACUUCCAGAUUAUAGACAATT against NDUFB3 – median seed-adjusted z-score: inactive: -0.00982
GCAAGACCGUGAGACAACUTT against SENP7 – median seed-adjusted z-score: inactive: 0.547
